Measurements published in the supplement of paper PMC10849652.
Some of the results follow.

The chains behind the UniProt entries cited, without tags or fusion partners. Where a name states a change or a piece, a line headed by the entry shows the natural chain unless it says otherwise.
UniProt Q9NVX2: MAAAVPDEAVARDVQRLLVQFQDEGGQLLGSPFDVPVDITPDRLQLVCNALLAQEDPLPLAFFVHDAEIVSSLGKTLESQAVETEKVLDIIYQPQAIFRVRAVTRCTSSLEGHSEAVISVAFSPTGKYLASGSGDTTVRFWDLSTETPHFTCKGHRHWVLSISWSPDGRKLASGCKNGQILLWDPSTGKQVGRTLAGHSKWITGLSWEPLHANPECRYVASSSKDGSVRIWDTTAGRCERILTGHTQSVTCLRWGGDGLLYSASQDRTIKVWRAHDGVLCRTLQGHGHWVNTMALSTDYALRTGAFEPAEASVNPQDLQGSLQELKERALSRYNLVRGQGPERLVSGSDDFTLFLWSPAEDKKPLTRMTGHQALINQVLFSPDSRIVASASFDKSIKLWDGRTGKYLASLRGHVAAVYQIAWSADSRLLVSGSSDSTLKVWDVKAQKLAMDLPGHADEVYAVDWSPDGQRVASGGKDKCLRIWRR
UniProt O43678, whole entry, looked up: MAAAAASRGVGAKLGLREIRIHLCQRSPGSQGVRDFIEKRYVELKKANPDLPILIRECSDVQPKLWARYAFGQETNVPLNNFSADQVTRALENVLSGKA
UniProt Q92597: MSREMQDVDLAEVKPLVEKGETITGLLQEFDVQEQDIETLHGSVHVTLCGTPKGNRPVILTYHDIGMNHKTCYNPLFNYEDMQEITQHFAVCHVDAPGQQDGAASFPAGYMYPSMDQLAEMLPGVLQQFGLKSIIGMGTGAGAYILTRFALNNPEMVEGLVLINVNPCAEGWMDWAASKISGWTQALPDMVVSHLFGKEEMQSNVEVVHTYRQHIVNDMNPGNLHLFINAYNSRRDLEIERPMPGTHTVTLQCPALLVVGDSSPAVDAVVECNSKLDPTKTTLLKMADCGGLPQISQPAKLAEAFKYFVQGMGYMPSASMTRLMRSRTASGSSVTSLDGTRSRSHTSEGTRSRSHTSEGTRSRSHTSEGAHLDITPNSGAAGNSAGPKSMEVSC
UniProt Q86Y39, whole entry, looked up: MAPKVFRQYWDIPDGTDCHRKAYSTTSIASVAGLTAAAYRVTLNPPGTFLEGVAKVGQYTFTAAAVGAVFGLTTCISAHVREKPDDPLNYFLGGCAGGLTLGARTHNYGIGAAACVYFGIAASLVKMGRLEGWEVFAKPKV
UniProt Q14934: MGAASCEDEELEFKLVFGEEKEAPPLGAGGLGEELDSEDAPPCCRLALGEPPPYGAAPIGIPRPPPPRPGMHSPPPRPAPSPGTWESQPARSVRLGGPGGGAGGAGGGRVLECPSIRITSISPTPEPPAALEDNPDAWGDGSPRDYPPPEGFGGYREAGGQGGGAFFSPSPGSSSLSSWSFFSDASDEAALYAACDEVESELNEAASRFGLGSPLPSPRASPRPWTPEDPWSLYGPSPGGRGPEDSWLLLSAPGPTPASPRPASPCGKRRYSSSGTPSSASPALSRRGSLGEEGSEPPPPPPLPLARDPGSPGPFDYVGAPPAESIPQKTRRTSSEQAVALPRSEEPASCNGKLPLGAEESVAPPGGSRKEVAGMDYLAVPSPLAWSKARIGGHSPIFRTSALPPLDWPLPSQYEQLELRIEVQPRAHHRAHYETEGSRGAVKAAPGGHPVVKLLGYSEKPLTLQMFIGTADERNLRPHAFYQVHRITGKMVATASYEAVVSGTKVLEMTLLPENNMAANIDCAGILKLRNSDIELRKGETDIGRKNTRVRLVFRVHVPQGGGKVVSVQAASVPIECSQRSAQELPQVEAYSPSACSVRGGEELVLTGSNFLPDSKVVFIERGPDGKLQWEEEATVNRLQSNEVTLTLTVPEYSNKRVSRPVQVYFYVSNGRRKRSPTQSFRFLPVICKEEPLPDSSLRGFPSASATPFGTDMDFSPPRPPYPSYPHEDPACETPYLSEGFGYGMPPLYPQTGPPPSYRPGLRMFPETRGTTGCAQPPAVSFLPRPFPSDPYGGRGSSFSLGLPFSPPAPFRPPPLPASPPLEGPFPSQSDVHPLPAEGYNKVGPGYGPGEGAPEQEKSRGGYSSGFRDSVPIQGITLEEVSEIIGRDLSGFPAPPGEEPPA
UniProt Q9NX14, whole entry, looked up: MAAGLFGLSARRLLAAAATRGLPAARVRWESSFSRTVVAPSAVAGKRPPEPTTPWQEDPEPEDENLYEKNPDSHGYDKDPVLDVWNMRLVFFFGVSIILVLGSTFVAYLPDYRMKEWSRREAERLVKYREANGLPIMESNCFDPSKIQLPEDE
UniProt Q9UGV2: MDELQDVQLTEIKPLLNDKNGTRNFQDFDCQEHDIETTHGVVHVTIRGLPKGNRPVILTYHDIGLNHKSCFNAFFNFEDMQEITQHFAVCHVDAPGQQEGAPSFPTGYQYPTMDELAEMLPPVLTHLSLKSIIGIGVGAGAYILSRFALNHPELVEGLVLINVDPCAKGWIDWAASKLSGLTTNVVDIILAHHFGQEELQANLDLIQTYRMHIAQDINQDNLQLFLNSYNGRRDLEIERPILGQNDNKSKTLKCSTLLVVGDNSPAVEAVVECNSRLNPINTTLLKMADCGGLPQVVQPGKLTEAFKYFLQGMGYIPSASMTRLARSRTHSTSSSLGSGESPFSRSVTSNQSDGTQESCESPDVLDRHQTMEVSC
UniProt Q0ZGT2: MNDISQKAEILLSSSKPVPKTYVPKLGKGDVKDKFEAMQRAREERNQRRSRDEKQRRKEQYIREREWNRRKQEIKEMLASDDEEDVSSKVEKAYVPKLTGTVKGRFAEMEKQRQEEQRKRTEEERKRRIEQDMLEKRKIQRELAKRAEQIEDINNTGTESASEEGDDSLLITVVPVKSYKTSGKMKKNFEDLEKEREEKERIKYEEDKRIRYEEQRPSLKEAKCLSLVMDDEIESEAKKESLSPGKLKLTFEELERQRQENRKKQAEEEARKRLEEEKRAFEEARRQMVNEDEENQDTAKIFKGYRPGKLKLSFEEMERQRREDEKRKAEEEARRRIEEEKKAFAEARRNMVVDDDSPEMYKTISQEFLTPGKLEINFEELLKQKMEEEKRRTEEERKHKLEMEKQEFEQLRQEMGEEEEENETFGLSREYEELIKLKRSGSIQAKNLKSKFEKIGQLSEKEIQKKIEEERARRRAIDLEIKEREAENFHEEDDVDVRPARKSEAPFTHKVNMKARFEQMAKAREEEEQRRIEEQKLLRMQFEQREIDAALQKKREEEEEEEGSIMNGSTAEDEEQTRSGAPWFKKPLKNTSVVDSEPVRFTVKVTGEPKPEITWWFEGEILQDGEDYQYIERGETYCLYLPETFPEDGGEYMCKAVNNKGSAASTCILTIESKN
UniProt P18615, whole entry, looked up: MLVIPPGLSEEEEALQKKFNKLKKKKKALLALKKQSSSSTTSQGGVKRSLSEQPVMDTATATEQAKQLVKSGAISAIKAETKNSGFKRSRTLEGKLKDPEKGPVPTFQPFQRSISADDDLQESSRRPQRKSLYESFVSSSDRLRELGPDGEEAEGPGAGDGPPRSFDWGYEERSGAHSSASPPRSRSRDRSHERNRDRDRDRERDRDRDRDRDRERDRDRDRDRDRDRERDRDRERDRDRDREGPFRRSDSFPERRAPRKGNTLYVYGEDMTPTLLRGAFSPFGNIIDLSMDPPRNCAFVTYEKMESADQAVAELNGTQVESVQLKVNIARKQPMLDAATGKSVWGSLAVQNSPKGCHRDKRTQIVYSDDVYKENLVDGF
UniProt P19838: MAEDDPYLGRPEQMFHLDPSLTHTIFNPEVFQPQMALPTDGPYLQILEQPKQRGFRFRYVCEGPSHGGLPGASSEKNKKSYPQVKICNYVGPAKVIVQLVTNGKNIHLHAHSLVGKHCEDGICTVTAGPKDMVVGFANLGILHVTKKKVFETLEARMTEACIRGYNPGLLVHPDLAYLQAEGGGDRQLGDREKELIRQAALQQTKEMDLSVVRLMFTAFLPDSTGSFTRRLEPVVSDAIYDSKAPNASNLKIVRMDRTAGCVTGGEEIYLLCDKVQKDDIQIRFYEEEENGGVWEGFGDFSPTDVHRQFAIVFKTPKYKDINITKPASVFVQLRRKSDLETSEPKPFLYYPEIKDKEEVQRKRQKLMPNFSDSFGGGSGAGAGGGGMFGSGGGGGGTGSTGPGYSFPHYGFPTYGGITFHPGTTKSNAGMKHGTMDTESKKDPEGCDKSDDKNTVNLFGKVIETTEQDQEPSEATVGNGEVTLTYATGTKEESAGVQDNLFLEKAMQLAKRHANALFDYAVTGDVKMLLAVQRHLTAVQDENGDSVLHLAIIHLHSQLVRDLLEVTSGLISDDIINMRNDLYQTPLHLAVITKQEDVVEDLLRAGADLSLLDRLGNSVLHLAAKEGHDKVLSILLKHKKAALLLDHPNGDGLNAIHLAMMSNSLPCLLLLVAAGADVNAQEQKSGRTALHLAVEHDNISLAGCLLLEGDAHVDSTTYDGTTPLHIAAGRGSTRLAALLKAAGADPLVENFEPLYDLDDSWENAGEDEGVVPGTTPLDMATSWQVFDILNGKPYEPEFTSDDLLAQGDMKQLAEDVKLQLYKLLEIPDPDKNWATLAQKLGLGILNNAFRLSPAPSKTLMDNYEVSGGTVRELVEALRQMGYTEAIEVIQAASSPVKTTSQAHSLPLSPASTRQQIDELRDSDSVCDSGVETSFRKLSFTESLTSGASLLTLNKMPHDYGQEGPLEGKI
UniProt O75438, whole entry, looked up: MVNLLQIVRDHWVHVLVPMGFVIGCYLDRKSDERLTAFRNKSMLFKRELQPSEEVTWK
UniProt Q9Y375: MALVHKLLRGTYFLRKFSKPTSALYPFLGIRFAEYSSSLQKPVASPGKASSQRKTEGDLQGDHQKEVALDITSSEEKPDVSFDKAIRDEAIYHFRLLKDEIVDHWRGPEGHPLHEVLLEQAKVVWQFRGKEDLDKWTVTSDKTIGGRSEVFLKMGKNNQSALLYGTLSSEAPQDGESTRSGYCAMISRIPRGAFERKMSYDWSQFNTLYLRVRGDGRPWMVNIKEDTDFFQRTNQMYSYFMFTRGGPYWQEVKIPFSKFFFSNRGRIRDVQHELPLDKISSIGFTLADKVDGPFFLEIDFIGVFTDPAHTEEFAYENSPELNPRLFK
UniProt Q12986: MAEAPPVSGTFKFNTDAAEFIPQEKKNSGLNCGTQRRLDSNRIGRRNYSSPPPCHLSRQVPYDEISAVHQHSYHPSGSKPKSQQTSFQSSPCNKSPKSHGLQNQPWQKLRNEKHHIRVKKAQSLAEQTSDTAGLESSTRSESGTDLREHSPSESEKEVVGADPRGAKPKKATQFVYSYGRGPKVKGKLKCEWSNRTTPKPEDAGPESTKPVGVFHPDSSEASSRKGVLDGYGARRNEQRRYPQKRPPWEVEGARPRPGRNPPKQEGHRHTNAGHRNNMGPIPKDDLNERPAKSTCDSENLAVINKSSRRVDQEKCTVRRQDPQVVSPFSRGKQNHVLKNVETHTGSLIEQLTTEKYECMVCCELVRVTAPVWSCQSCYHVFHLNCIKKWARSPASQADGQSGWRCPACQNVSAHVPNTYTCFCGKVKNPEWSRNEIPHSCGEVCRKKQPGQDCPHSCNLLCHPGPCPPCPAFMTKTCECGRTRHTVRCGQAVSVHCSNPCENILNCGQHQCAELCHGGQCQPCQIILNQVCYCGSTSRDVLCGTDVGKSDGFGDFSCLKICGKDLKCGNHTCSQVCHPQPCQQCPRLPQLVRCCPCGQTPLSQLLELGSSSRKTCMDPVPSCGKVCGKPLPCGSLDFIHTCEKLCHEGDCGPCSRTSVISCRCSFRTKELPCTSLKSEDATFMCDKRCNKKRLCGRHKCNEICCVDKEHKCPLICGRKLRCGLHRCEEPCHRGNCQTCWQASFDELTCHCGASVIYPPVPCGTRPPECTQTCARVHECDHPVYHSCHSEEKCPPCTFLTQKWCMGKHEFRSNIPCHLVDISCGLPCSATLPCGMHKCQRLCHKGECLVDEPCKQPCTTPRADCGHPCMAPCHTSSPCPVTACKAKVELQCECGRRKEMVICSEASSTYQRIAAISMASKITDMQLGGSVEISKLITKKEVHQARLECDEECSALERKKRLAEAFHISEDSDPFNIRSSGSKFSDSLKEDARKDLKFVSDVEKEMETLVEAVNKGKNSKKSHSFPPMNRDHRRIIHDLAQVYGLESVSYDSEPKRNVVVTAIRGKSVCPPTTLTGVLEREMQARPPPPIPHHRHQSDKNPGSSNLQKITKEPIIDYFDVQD
UniProt Q7L592: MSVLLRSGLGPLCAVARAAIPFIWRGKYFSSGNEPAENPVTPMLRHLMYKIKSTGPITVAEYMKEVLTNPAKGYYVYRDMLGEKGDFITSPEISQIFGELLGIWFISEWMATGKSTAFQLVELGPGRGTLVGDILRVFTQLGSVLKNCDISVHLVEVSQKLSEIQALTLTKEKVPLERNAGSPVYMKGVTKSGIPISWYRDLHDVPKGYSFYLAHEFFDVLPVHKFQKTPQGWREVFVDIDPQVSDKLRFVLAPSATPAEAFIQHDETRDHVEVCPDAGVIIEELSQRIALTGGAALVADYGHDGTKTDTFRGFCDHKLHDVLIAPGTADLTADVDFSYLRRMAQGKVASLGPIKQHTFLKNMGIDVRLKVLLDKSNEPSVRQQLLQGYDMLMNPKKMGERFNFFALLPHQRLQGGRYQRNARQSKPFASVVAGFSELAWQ

Tests used:
Experiment in all cases: log2 fold change, soluble protein after heating vs DMSO (PISA); higher = thermal stabilisation; K562 lysate, 10 uM; active = over 0.2 and 3.5 SD of the protein, either way, in both replicates (recomputed)
[1] = compound: C1=CC=C(C=C1)[C@H](COC2=CC3=C(C=C2)NC(=O)N3)NC(=O)C4=CC=CN(C4=O)CC5=CC(=C(C=C5)F)F
In short: (§1)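 Quantification was by TMTpro 16plex LC-MS/MS with equalised channel sums, applied to the supernatant after 21,000xg for 90 min. Samples were crude K562 extract at 1 mg/mL protein in PBS pH 7.4 with 1 mM MgCl2, treated with 10 μM compound for 30 min, heated for 3 min across 48°C-58°C, pooled and brought to 0.5% NP-40 at 4°C. Values are log-two fold changes in thermal stability relative to solvent controls, from duplicates.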

[2] = compound: CC1=C(SC2=C1C(=N[C@H](C3=NN=C(N32)C)CC(=O)N)C4=CC=C(C=C4)Cl)C
In short: as §1

[3] = compound: CC1=C2C(=CC=C1)N=C(N(C2=O)C3=CC=CC=C3C)CN4C=NC5=C(N=CN=C54)N
In short: as §1

[4] = compound: Cc1sc2c(c1C)C(c1ccc(Cl)cc1)=N[C@@H](CC(=O)OC(C)(C)C)c1nnc(C)n1-2
In short: as §1

[5] = compound: c1ccc([C@@H]2C[C@H]2NC2CCNCC2)cc1
In short: as §1

Measured: log2 fold change

NLE1 (UniProt Q9NVX2)
inactive: [1] 0.033 | [2] 0.01 | [3] -0.006 | [4] -0.01 | [5] -0.028

NDUFA2 (UniProt O43678)
inactive: [1] 0.008 | [2] -0.026 | [3] 0.04 | [4] -0.014 | [5] 0.038

NIT2 (UniProt Q9NQR4)
inactive: [1] -0.033 | [2] 0.017 | [3] 0.027 | [4] -0.007 | [5] 0.058

NDRG1 (UniProt Q92597)
inactive: [1] -0.083 | [2] -0.19 | [3] -0.104 | [4] -0.069 | [5] -0.024

NFE2 (UniProt Q16621)
inactive: [1] -0.042 | [2] 0.021 | [3] 0.004 | [4] -0.028 | [5] -0.011

NECAP1 (UniProt Q8NC96)
inactive: [1] 0.034 | [2] 0.041 | [3] 0.006 | [4] 0.015 | [5] -0.031

NDUFA11 (UniProt Q86Y39)
inactive: [1] -0.002 | [2] -0.033 | [3] -0.013 | [4] 0.016 | [5] -0.086

NFATC4 isoform 2 (UniProt Q14934)
inactive: [1] -0.077 | [2] 0.015 | [3] 0 | [4] -0.112 | [5] -0.197

NDUFB11 isoform 2 (UniProt Q9NX14)
inactive: [1] -0.083 | [2] 0.006 | [3] 0.021 | [4] 0.018 | [5] -0.016

NDRG3 (UniProt Q9UGV2)
inactive: [1] -0.006 | [2] 0.002 | [3] 0.017 | [4] 0.018 | [5] 0.033

NEB isoform 3 (UniProt P20929)
inactive: [1] 0.128 | [2] -0.043 | [3] 0.127 | [4] 0.046 | [5] -0.214

NIPSNAP1 (UniProt Q9BPW8)
inactive: [1] 0.01 | [2] 0.012 | [3] 0.029 | [4] 0.043 | [5] 0.08

Taken from the listing (two entries):
NEB isoform 3 (UniProt P20929)
inactive: [1] 0.128 | [2] -0.043 | [3] 0.127 | [4] 0.046 | [5] -0.214

NIPSNAP1 (UniProt Q9BPW8)
inactive: [1] 0.01 | [2] 0.012 | [3] 0.029 | [4] 0.043 | [5] 0.08

More entries:

NFU1 (UniProt Q9UMS0)
inactive: [1] -0.163 | [2] -0.053 | [3] -0.004 | [4] 0.033 | [5] 0.04

NEXN (UniProt Q0ZGT2)
inactive: [1] -0.31 | [2] 0.335 | [3] 0.271 | [4] -0.083 | [5] -0.22

NELFE (UniProt P18615)
inactive: [1] 0.009 | [2] -0.006 | [3] 0.03 | [4] 0.009 | [5] -0.037

NFKB1 isoform 2 (UniProt P19838)
inactive: [1] 0.004 | [2] -0.003 | [3] 0.031 | [4] 0.002 | [5] -0.013

NIBAN1 (UniProt Q9BZQ8)
inactive: [1] 0.018 | [2] -0.009 | [3] 0.035 | [4] 0.037 | [5] 0.044

NELFB isoform 2 (UniProt Q8WX92)
inactive: [1] -0.022 | [2] -0.018 | [3] 0.022 | [4] 0.014 | [5] 0.018

NDUFB1 (UniProt O75438)
inactive: [1] 0.016 | [2] 0.029 | [3] 0.022 | [4] -0.063 | [5] 0.06

NDUFAF1 (UniProt Q9Y375)
inactive: [1] 0.04 | [2] -0.041 | [3] -0.016 | [4] -0.065 | [5] 0.049

NFYB (UniProt P25208)
inactive: [1] 0.062 | [2] -0.053 | [3] 0.067 | [4] -0.073 | [5] -0.037

NFX1 (UniProt Q12986)
inactive: [1] 0.02 | [2] -0.03 | [3] -0.045 | [4] 0.048 | [5] -0.075

NDUFAF7 (UniProt Q7L592)
inactive: [1] -0.003 | [2] 0.109 | [3] 0.019 | [4] -0.012 | [5] 0.035

NEK9 (UniProt Q8TD19)
inactive: [1] -0.002 | [2] 0.002 | [3] -0.033 | [4] 0.017 | [5] -0.032
